Test results as given in the supplement of paper PMC12823440, “Inhibitors supercharge kinase turnover through native proteolytic circuits” (Nature, 2025).
Structures can show the parent of a compound that is named as a salt. Some of the results follow. The calls rarely recur for the same compound in another form.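 In K562 cells expressing nanoluciferase-fused kinases, luminescence was recorded at 4 h intervals between 2 and 18 h, normalized as percent of control with DMSO at 100% and a positive control at 0%. A significant (2 sigma) signal drop marks a time point as decreased. The authors' rule for a hit is not shown and takes in more than the number of time points.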

By UniProt entry, the sequences of proteins in these tests, tags left out. Where a name states a change or a piece, a line headed by the entry shows the natural chain unless it says otherwise.
UniProt O15530: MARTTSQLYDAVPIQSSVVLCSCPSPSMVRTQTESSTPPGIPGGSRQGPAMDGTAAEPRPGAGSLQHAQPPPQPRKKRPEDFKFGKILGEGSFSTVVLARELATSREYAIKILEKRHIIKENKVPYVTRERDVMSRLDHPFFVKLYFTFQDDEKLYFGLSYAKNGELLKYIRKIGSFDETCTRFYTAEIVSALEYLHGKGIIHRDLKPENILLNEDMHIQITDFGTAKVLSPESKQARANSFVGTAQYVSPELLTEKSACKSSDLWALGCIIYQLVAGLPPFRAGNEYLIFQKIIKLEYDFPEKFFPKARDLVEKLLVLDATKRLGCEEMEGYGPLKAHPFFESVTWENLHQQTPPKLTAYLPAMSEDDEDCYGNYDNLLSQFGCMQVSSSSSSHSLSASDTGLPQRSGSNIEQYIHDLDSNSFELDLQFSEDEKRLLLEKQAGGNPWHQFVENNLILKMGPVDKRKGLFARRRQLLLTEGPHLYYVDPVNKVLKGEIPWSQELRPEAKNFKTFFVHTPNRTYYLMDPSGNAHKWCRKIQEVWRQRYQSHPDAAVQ

Target: PDPK1 (UniProt O15530)
Experiment: number of time points (of 5) at which kinase-Nluc abundance scored as decreased, DMSO-normalised (count); higher = more persistent destabilization
Conditions: K562; 2-18 h

Row | SMILES | number of time points
1 | C[C@H]1CC[C@]2(NC1)O[C@H]1C[C@H]3[C@@H]4CC[C@H]5C[C@@H](O[C@@H]6O[C@H](CO)[C@H](O[C@@H]7O[C@H](CO)[C@@H](O)[C@H](O[C@@H]8OC[C@@H](O)[C@H](O)[C@H]8O)[C@H]7O[C@@H]7O[C@H](CO)[C@@H](O)[C@H](O)[C@H]7O)[C@H](O)[C@H]6O)CC[C@]5(C)[C@H]4CC[C@]3(C)[C@H]1[C@@H]2C [Tomatine] (2.5 µM) | 0
2 | CCCCNc1nc(N)c2[nH]c(=O)n(Cc3ccc(C)nc3)c2n1 (10 µM) | 0
3 | C[C@H](CCC(=O)O)C[C@H](C)C[C@H](C)C(=O)/C=C(\O)[C@H](C)C[C@H](C)C/C=C/[C@@H](C)[C@@H](O)[C@@H](C)[C@@H](O)C[C@@H]1CC[C@@](C)([C@H]2CC[C@@](C)([C@@H](C)O)O2)O1 [Ionomycin (calcium)] (2.5 µM) | 0
4 | CCOC(=O)c1c(/C(C#N)=C\N)c2ccc(Cl)c(Cl)c2n1C (10 µM) | 0
5 | CC(=O)OC(C)(C)/C=C/C(=O)[C@](C)(O)[C@H]1[C@H](O)C[C@@]2(C)[C@@H]3CC=C4[C@@H](C=C(O)C(=O)C4(C)C)[C@]3(C)C(=O)C[C@]12C [Cucurbitacin E] (2.5 µM) | 5
6 | O=C1C=CC[C@@H]2[C@H]3CCCN4CCC[C@@H](CN12)[C@@H]34 [Sophocarpine (monohydrate)] (2.5 µM) | 0
7 | C=CC(=O)Nc1ccc2[nH]c(=O)n(C3CCN(Cc4ccc(-c5nc6cc[nH]c(=O)c6cc5-c5ccccc5)cc4)CC3)c2c1 [Borussertib] (10 µM) | 0
8 | O=C1C=CC[C@@H]2[C@H]3CCCN4CCC[C@@H](CN12)[C@@H]34 [Sophocarpine] (10 µM) | 0
9 | C=CC(=O)N[C@H]1C=C(C)c2c(-c3cnc4ccccc4c3)c3c(N)ncnc3n2C1 (10 µM) | 0
10 | Cn1cc(C2=C(c3cn(C4CCN(Cc5ccccn5)CC4)c4ccccc34)C(=O)NC2=O)c2ccccc21 [Enzastaurin] (10 µM) | 0
11 | CCN1CCN(C(=O)Cc2ccc(Nc3ncc(F)c(Nc4ccc(C(=O)Nc5ccccc5Cl)cc4)n3)cc2)CC1 (2.5 µM) | 0
12 | C[C@H]1CC[C@]2(NC1)O[C@H]1C[C@H]3[C@@H]4CC[C@H]5C[C@@H](O)CC[C@]5(C)[C@H]4CC[C@]3(C)[C@H]1[C@@H]2C [Tomatidine (hydrochloride)] (10 µM) | 0
13 | O=[N+]([O-])/C=C/c1ccc2c(c1)OCO2 (2.5 µM) | 0
14 | NCCc1cn(S(=O)(=O)c2c(Cl)nc3sccn23)c2ccccc12 (10 µM) | 0
15 | COc1ccc(N(C(=O)Oc2c(C)cccc2C)c2ccnc(Nc3ccc(N4CCN(C)CC4)cc3)n2)c(OC)c1 (2.5 µM) | 0
16 | Cc1ccccc1-n1c(Cn2cnc3c(N)ncnc32)nc2cccc(C)c2c1=O (10 µM) | 0
17 | Cc1[nH]ncc1-c1cc2nc([C@H]3CC4CCN3CC4)[nH]c(=O)c2s1 [(R)-Simurosertib] (10 µM) | 0
18 | CC1C(=O)OC2C(O)C34C5OC(=O)C3(OC3OC(=O)C(O)C34C(C(C)(C)C)C5O)C12O (stereo not given) [Ginkgolide C] (10 µM) | 0
19 | O=C(/C=C/c1ccccc1)OC[C@H]1O[C@@H](O[C@@H]2OC=C[C@H]3[C@H](O)[C@@H]4O[C@]4(CO)[C@@H]23)[C@H](O)[C@@H](O)[C@@H]1O [Picroside I] (10 µM) | 0
20 | CC1=C[C@]23C(=O)[C@@H](C=C(CO)[C@@H](O)[C@]2(O)[C@H]1O)[C@H]1[C@@H](C[C@H]3C)C1(C)C [Ingenol] (10 µM) | 0
21 | O=Cc1cn(Cc2ccc(Cl)cc2)c2ccccc12 [Oncrasin-1] (10 µM) | 0
22 | C[C@@H]1CC[C@H]2[C@@H](C)C(=O)O[C@@H]3O[C@@]4(C)CC[C@@H]1[C@]32OO4 [Artemisinin] (10 µM) | 0
23 | C[C@H](Nc1ncnc2[nH]cnc12)c1nc2ccc(F)cc2c(=O)n1-c1ccccc1 [Acalisib] (10 µM) | 0
24 | O=C1c2ccccc2C(=O)c2c1cccc2-c1cnn(C2CCNCC2)c1 [PDK4-IN-1 (hydrochloride)] (10 µM) | 0
25 | Cc1ccccc1-n1c(Cn2ncc3c(N)ncnc32)nc2cccc(C)c2c1=O (10 µM) | 0

Some of the entries above in a different format:
Row	SMILES	number of time points
4	CCOC(=O)c1c(/C(C#N)=C\N)c2ccc(Cl)c(Cl)c2n1C (10 µM)	0
5	CC(=O)OC(C)(C)/C=C/C(=O)[C@](C)(O)[C@H]1[C@H](O)C[C@@]2(C)[C@@H]3CC=C4[C@@H](C=C(O)C(=O)C4(C)C)[C@]3(C)C(=O)C[C@]12C [Cucurbitacin E] (2.5 µM)	5
